Reference: the supplement of paper PMC10849652
The list shows a part of the results.

By UniProt entry, the sequences of proteins in these tests, tags left out. Where a name states a change or a piece, a line headed by the entry shows the natural chain unless it says otherwise.
UniProt P26038, whole entry, looked up: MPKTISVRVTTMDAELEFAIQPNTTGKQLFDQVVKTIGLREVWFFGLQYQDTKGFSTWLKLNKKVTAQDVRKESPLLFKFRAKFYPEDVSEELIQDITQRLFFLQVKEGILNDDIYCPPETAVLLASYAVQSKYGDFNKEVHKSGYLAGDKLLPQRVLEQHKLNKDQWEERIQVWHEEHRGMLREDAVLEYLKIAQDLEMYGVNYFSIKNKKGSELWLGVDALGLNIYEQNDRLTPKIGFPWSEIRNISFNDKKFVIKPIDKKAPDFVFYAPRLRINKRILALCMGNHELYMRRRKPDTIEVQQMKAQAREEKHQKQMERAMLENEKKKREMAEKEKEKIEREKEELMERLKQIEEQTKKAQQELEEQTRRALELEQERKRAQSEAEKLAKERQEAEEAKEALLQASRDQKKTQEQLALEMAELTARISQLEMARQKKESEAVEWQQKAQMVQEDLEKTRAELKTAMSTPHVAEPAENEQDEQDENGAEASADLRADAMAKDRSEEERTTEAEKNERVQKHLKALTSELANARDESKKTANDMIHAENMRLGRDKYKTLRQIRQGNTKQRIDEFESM
UniProt Q96DH6: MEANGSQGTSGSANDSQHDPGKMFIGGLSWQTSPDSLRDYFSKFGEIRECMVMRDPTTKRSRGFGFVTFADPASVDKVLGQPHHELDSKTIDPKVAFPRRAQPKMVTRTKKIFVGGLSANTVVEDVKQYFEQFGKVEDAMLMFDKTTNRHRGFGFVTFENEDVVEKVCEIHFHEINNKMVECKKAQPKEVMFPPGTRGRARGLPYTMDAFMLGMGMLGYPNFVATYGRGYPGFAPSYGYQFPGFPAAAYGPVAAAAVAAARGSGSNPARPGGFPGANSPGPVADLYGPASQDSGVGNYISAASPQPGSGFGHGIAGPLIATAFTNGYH
UniProt P03928: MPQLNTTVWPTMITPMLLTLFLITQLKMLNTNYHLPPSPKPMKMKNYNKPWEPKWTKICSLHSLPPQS
UniProt Q9NVV4: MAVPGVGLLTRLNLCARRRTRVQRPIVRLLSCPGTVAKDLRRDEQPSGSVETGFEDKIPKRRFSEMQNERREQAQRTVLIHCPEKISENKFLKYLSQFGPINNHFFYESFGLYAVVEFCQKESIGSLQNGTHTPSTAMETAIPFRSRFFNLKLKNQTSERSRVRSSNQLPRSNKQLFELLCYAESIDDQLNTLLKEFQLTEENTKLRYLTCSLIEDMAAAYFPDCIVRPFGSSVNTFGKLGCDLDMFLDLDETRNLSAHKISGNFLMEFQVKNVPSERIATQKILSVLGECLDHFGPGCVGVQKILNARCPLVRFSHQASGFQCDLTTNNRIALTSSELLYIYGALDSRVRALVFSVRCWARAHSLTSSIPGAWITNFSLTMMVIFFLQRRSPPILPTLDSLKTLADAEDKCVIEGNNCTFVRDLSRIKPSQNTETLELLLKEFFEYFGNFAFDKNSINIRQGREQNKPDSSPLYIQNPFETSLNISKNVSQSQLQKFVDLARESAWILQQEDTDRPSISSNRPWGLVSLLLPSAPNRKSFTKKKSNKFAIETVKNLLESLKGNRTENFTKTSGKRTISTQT
UniProt Q969H8: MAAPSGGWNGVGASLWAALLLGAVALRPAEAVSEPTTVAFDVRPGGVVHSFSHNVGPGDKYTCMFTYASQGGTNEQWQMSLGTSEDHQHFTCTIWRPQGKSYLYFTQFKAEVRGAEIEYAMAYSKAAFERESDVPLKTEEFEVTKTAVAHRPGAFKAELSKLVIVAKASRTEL
UniProt Q7Z6M4: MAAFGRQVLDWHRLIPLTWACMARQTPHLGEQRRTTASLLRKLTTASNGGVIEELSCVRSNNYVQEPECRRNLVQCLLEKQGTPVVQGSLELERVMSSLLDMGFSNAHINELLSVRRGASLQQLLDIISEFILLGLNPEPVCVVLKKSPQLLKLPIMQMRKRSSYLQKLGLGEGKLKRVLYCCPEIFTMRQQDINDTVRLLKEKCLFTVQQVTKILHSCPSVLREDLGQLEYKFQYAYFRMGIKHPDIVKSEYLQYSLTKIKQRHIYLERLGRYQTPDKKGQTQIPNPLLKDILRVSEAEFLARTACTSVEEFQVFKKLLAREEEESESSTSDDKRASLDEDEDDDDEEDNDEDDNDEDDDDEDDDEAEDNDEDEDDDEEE
UniProt Q15800: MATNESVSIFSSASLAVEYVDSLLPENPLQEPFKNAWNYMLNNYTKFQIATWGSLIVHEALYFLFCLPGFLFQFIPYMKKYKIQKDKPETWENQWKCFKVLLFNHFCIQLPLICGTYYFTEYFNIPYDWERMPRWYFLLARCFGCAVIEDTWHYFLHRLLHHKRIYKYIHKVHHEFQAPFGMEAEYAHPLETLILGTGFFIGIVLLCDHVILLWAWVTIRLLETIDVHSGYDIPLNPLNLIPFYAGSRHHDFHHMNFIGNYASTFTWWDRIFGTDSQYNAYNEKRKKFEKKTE
UniProt P58546, whole entry, looked up: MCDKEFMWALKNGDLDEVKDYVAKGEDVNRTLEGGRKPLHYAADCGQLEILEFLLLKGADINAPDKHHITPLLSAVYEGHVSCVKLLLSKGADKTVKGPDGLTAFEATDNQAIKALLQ
UniProt Q969V6: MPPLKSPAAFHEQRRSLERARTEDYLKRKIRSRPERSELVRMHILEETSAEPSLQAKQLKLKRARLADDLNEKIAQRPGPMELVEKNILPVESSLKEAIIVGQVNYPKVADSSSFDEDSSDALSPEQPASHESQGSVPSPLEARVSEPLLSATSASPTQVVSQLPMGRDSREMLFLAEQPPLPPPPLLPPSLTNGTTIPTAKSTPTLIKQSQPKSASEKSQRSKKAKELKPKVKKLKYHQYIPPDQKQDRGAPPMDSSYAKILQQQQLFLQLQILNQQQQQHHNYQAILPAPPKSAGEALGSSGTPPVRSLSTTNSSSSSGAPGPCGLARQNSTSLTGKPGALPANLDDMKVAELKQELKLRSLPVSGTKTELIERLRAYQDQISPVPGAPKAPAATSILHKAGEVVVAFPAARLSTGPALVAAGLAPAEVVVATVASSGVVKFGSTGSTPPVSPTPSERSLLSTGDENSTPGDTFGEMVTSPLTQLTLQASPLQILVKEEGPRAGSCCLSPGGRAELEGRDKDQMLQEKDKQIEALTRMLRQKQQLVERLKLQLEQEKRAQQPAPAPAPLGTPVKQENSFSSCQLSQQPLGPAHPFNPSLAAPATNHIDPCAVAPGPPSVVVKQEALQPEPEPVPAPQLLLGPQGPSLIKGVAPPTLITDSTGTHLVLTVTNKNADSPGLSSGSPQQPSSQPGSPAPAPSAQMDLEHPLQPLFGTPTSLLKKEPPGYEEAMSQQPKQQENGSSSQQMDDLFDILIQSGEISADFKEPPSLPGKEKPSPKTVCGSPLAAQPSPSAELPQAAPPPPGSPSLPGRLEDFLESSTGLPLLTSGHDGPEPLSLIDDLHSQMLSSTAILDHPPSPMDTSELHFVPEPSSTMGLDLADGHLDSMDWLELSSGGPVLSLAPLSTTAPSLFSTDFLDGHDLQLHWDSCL
UniProt P12829: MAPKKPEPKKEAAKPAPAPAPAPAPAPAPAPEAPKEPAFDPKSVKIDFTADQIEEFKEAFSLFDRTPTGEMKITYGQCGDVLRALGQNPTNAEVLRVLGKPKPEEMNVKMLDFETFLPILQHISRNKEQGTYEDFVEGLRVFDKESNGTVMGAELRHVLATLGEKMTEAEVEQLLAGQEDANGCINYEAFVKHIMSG
UniProt O43347: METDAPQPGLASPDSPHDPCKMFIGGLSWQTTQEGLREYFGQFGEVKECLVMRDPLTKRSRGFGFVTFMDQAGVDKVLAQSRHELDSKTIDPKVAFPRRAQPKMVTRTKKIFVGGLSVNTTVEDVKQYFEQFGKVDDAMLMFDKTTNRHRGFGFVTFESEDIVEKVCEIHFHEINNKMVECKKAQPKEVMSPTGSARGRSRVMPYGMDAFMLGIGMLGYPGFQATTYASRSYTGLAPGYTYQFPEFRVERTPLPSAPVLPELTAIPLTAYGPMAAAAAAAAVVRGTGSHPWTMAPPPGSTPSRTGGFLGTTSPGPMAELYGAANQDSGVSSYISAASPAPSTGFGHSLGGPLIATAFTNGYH
UniProt B2RTY4: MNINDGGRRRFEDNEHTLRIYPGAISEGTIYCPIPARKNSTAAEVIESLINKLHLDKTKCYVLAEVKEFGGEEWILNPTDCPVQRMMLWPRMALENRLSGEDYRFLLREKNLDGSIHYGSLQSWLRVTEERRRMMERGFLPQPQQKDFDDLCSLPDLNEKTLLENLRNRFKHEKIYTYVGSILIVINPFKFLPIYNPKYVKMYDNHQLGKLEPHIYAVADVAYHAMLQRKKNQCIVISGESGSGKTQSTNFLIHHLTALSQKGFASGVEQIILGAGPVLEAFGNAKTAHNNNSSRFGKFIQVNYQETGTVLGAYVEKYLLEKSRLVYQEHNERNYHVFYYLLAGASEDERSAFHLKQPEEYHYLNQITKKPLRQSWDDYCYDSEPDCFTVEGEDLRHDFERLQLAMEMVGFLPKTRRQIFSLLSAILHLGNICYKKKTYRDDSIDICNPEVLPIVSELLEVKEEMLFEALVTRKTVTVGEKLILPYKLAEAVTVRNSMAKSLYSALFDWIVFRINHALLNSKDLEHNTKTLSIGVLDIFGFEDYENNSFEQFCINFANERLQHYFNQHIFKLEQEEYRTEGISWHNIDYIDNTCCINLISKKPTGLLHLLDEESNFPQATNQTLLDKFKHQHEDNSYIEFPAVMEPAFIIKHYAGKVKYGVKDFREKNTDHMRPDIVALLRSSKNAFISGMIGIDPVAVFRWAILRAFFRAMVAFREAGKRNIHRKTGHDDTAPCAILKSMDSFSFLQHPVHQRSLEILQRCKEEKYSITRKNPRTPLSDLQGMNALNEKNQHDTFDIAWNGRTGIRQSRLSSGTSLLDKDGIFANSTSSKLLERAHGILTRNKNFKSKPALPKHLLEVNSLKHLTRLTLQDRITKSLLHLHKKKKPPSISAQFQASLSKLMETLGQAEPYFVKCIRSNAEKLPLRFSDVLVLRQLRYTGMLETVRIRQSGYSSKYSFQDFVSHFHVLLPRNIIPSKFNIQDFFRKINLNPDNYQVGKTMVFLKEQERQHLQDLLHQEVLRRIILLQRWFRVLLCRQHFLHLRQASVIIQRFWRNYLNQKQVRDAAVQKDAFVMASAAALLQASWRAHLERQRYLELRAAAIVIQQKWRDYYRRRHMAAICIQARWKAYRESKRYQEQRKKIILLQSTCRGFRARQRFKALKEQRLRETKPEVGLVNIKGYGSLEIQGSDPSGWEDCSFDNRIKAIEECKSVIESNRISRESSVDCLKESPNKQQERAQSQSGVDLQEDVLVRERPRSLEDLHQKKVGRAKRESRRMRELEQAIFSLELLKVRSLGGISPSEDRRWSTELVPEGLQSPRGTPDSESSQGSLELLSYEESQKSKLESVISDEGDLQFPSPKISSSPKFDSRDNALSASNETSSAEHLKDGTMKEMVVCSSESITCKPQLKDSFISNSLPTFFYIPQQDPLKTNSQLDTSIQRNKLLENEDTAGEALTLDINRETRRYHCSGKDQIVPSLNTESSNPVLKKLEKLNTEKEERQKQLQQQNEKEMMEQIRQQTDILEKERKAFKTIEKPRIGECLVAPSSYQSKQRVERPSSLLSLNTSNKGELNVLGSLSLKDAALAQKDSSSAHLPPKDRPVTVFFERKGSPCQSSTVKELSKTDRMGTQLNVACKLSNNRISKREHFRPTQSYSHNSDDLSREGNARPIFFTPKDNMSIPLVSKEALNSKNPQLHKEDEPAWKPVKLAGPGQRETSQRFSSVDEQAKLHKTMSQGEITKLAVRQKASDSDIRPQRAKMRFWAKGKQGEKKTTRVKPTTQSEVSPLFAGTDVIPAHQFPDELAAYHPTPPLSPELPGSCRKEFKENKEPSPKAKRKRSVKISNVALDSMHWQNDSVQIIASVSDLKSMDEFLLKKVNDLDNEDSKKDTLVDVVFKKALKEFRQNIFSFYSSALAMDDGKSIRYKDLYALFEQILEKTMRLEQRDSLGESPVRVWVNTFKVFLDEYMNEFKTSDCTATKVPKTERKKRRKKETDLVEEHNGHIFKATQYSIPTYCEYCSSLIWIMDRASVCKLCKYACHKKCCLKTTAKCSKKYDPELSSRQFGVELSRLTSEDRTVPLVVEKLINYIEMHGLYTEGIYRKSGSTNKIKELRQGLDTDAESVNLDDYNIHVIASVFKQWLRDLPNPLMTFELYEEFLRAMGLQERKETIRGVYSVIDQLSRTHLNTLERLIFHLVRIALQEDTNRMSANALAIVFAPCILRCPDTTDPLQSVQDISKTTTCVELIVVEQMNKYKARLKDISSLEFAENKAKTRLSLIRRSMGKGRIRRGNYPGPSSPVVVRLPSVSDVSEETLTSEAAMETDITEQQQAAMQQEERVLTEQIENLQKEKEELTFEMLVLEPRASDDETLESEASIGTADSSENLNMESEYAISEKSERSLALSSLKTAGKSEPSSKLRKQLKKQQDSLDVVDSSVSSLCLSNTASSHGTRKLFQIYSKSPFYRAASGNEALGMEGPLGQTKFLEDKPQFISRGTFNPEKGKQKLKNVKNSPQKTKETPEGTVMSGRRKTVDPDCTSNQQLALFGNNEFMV

What was measured:
Test in all cases: log2 fold change, soluble protein after heating vs DMSO (PISA); higher = thermal stabilisation; K562 cells, 10 uM, 30 min; active = over 0.2 and 3.5 SD of the protein, either way, in both replicates (recomputed)
erlotinib = compound: C#Cc1cccc(Nc2ncnc3cc(OCCOC)c(OCCOC)cc23)c1 [erlotinib]
Procedure, shortened: (§1)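 Aliquots of K562 cells (2×10^6 cells/mL) treated with 10 μM compound for 30 min were heated for 3 min over 48°C-58°C. After pooling and extraction in PBS with 0.5% NP-40 at 4°C, soluble protein from a 21,000xg, 90 min spin was quantified by TMTpro 16plex LC-MS/MS with channel sums equalised. Thermal stability is expressed against control samples, from duplicates, as a log2 fold change.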

[1] = compound: C/C(=N\NC(=O)C1=CC(=CC=C1)S(=O)(=O)N2CCOCC2)/C3=C(C=CC(=C3)Cl)O
Procedure, shortened: as §1

[2] = compound: C1=CC(=C(C=C1Cl)C2=NC3=NC=CN=C3C(=N2)NC4=CC=NC=C4)F
Procedure, shortened: as §1

[3] = compound: C1=CC(=CC=C1C2=NC3=C(N2)C=C(C=C3)C(=O)N)OC4=CC=C(C=C4)Cl
Procedure, shortened: as §1

[4] = compound: C1=CC2=C(C=CC(=C2)/C=C\3/C(=O)NC(=NCC4=CC=CS4)S3)N=C1
Procedure, shortened: as §1

[5] = compound: C1=CC2=NC=CN=C2C=C1/C=C/3\C(=O)NC(=O)S3
Procedure, shortened: as §1

[6] = compound: C1=CC=C(C=C1)C2=NC(=C(N2)C3=CC=NC=C3)C4=CC(=C(C=C4)Cl)O
Procedure, shortened: as §1

[7] = compound: C1=CC=C2C(=C1)C3=NNC4=CC=CC(=C43)C2=O
Procedure, shortened: as §1

[8] = compound: C1CCN(C1)C(=O)NC2=CC=CC(=C2)NC3=NC=C(C(=N3)NCCC4=CN=CN4)Br
Procedure, shortened: as §1

[9] = compound: C1CN(CCC1(CC2=CC=C(C=C2)Cl)N)C3=NC=NC4=C3C=CN4
Procedure, shortened: as §1

Measured: log2 fold change

MRPS23 (UniProt Q9Y3D9)
inactive: erlotinib -0.038 | [1] 0.052 | [2] -0.067 | [3] 0.16 | [4] 0.003 | [5] 0.043 | [6] 0.075 | [7] 0.118 | [8] 0.001 | [9] -0.099

MSN (UniProt P26038)
inactive: erlotinib 0.003 | [1] 0.032 | [2] 0.063 | [3] -0.008 | [4] -0.022 | [5] 0.025 | [6] -0.005 | [7] 0.036 | [8] -0.004 | [9] -0.023

MSI2 (UniProt Q96DH6)
inactive: erlotinib -0.025 | [1] -0.057 | [2] -0.173 | [3] 0.106 | [4] 0.028 | [5] 0.034 | [6] -0.079 | [7] -0.066 | [8] 0.087 | [9] -0.034

MTCH2 (UniProt E9PIE4)
inactive: erlotinib -0.042 | [1] 0.061 | [2] 0.146 | [3] 0.059 | [4] 0.049 | [5] 0.086 | [7] -0.024

MTFP1 (UniProt Q9UDX5)
inactive: erlotinib -0.05 | [1] -0.006 | [2] -0.002 | [3] 0.065 | [4] 0.107 | [5] 0.042 | [6] -0.058 | [7] -0.017 | [8] 0.029 | [9] 0.085

MRPS6 (UniProt P82932)
inactive: erlotinib 0.001 | [1] 0.006 | [2] 0.006 | [3] 0.088 | [4] 0.01 | [5] 0.112 | [6] 0.128 | [7] 0.079 | [8] -0.039 | [9] -0.093

MT-ATP6 (UniProt P00846)
inactive: erlotinib 0.207 | [1] 0.146 | [2] -0.042 | [3] -0.07 | [4] -0.078 | [5] -0.391 | [6] -0.048 | [7] -0.017 | [8] -0.073 | [9] -0.042

MT-ATP8 (UniProt P03928)
inactive: erlotinib -0.057 | [1] 0.062 | [2] 0.125 | [3] 0.149 | [4] 0.185 | [5] 0.029 | [7] -0.02 | [8] 0.112 | [9] 0.012

MRPS30 (UniProt Q9NP92)
inactive: erlotinib -0.253 | [1] -0.065 | [2] -0.036 | [3] 0.082 | [4] -0.066 | [5] 0.028 | [6] -0.024 | [7] 0.155 | [8] -0.038 | [9] -0.16

MTPAP (UniProt Q9NVV4)
inactive: erlotinib 0.019 | [1] -0.047 | [2] -0.078 | [3] -0.012 | [4] -0.026 | [5] 0.112 | [6] 0.003 | [7] 0.003 | [8] -0.048 | [9] -0.02

MTRES1 (UniProt Q9P0P8)
inactive: erlotinib -0.047 | [1] 0.015 | [2] -0.303 | [3] -0.041 | [4] 0.038 | [7] 0.151 | [8] -0.147 | [9] 0.006

MYDGF (UniProt Q969H8)
inactive: erlotinib -0.01 | [1] -0.042 | [2] 0.031 | [3] 0.013 | [4] -0.039 | [5] 0.008 | [6] 0.013 | [7] -0.008 | [8] -0.004 | [9] 0.064

MRPS22 (UniProt P82650)
inactive: erlotinib -0.052 | [1] 0.026 | [2] -0.021 | [3] 0.16 | [4] -0.082 | [5] 0 | [6] 0.026 | [7] 0.068 | [8] -0.028 | [9] -0.101

MTERF4 (UniProt Q7Z6M4)
inactive: erlotinib 0.162 | [1] -0.068 | [2] 0.058 | [3] -0.04 | [4] 0.059 | [6] -0.345 | [7] 0.04 | [8] 0.159 | [9] -0.181

Reprinted at random: 2 records from the list, in no set order.
MYDGF (UniProt Q969H8)
inactive: erlotinib -0.01 | [1] -0.042 | [2] 0.031 | [3] 0.013 | [4] -0.039 | [5] 0.008 | [6] 0.013 | [7] -0.008 | [8] -0.004 | [9] 0.064

MTRES1 (UniProt Q9P0P8)
inactive: erlotinib -0.047 | [1] 0.015 | [2] -0.303 | [3] -0.041 | [4] 0.038 | [7] 0.151 | [8] -0.147 | [9] 0.006

(continued)

MSH6 (UniProt P52701)
inactive: erlotinib 0.286 | [1] 0.224 | [2] 0.096 | [3] 0.002 | [4] 0.167 | [5] 0 | [6] 0.102 | [7] 0.137 | [8] -0.095 | [9] -0.143

MSMO1 (UniProt Q15800)
inactive: erlotinib 0.028 | [1] 0.063 | [2] 0.087 | [3] 0 | [4] 0.033 | [5] 0.044 | [6] 0.082 | [7] -0.085 | [8] 0.035 | [9] 0.132

MRS2 (UniProt Q9HD23)
inactive: erlotinib -0.069 | [1] 0.019 | [2] 0.046 | [3] 0.015 | [4] -0.028 | [5] 0.053 | [6] 0.099 | [7] -0.009 | [8] 0.011 | [9] 0.033

MTPN (UniProt P58546)
inactive: erlotinib -0.04 | [1] -0.012 | [2] 0.25 | [3] -0.028 | [4] 0.02 | [5] 0.088 | [6] 0.158 | [7] -0.037 | [8] -0.055 | [9] -0.104

MRTFA (UniProt Q969V6)
inactive: erlotinib 0.058 | [1] -0.063 | [2] 0.002 | [3] 0.019 | [4] 0.065 | [5] 0.021 | [6] 0.017 | [7] -0.08 | [8] -0.063 | [9] 0.049

MUCL1 (UniProt Q96DR8)
inactive: erlotinib 0.341 | [1] 0.113 | [2] -0.133 | [3] -0.258 | [4] 0.041 | [5] -0.087 | [6] 0.089 | [7] -0.369 | [8] -0.352 | [9] -0.567

MTMR2 (UniProt Q13614)
inactive: erlotinib 0.004 | [1] 0.054 | [2] 0.009 | [3] 0.037 | [4] 0.007 | [5] -0.024 | [6] -0.067 | [7] 0.015 | [8] -0.046 | [9] -0.02

MYL4 (UniProt P12829)
inactive: erlotinib -0.002 | [1] -0.013 | [2] 0.074 | [3] -0.025 | [4] 0.005 | [5] 0.039 | [6] 0.01 | [7] -0.05 | [8] -0.022 | [9] -0.044

MRPS18C (UniProt Q9Y3D5)
inactive: erlotinib -0.073 | [1] -0.041 | [2] -0.071 | [3] 0.269 | [4] -0.019 | [5] -0.139 | [6] 0.081 | [7] 0.128 | [8] 0.114 | [9] 0.172

MSI1 (UniProt O43347)
inactive: erlotinib -0.044 | [1] -0.017 | [2] -0.048 | [3] 0.217 | [4] 0.103 | [5] 0.114 | [6] -0.01 | [7] 0.079 | [8] 0.069 | [9] -0.048

MTO1 isoform 6 (UniProt Q9Y2Z2)
inactive: erlotinib 0.085 | [1] 0.004 | [2] 0.071 | [3] -0.021 | [4] 0.087 | [6] 0.034 | [7] 0.149 | [8] -0.023 | [9] 0.058

MVB12A (UniProt Q96EY5)
inactive: erlotinib -0.06 | [1] 0.082 | [2] 0.071 | [3] -0.004 | [4] 0.091 | [5] -0.061 | [6] -0.025 | [7] 0.105 | [8] 0.047 | [9] -0.005

MYO9A isoform 4 (UniProt B2RTY4)
inactive: erlotinib -0.078 | [1] 0.001 | [2] -0.08 | [3] 0.046 | [4] -0.016 | [5] 0.01 | [7] 0.098

MYADM (UniProt Q96S97)
inactive: erlotinib -0.013 | [1] 0.004 | [2] -0.004 | [3] 0.033 | [4] 0.111 | [5] 0.143 | [6] 0.106 | [7] -0.079 | [8] -0.029 | [9] 0.052

MTMR10 (UniProt Q9NXD2)
inactive: [2] 0.114 | [5] 0.091

MYH3 (UniProt P11055)
inactive: erlotinib -0.148 | [3] -0.139 | [5] -0.295 | [8] -0.03 | [9] 0.045

MT1G (UniProt P13640)
inactive: erlotinib -0.009 | [1] -0.076 | [3] 0 | [4] -0.081 | [5] 0.104 | [6] 0.093 | [7] -0.098 | [8] 0 | [9] 0.175
